Laboratory results published in US20100291106A1.
Changes are numbered by the printed parent chain. Results are given in words; binding and its absence hold for the method and conditions named. A result given as binding can be weak or reduced; the word gives no strength.

B1: MOR09556 IgG (antibody, V domains shown)
VH: EVQLVESGGGLVQPGGSLRLSCAASGFTFSSYWMTWVRQAPGKGLEWVSSIKIKPDGYAASVKGRFTISRDNSKNTLYLQMNSLRAEDTAVYYCARLFYQYFARMDYWGQGTLVTVSS
VL: DIQMTQSPSSLSASVGDRVTITCRASQDISNYLNWYQQKPGKAPKLLIYAASNLQSGVPSRFSGSGSGTDFTLTISSLQPEDFATYYCQQYDSYSPTFGQGTKVEIKR
B2: MOR09611 IgG (antibody, V domains shown)
VH: B1 VH
VL: B1 VL with Y91H, S93T, Y94F, S95R
B3: MOR09612 IgG (antibody, V domains shown)
VH: B1 VH
VL: B1 VL with Y91W, Y94F
B4: MOR09609 IgG (antibody, V domains shown)
VH: EVQLVQSGAEVKKPGSSVKVSCKASGGTFSSYTFSWVRQAPGQGLEWMGNILPIFGDANYAQKFQGRVTITADESTSTAYMELSSLRSEDTAVYYCARNKGAFYYMSTYPSLDVWGQGTLVTVSS
VL: DIQMTQSPSSLSASVGDRVTITCRASQNINYYLNWYQQKPGKAPKLLIYDAFSLQSGVPSRFSGSGSGTDFTLTISSLQPEDFATYYCQQSWSVPPFTFGQGTKVEIKR
B5: MOR09610 IgG (antibody, V domains shown)
VH: B4 VH
VL: B4 VL with W92I, S93A
B6: MOR09675 IgG (antibody, V domains shown)
VH: EVQLVQSGAEVKKPGASVKVSCKASGYTFTGYYINWVRQAPGQGLEWMGIISPNQGTTGYAQKFQGRVTMTRDTSISTAYMELSSLRSEDTAVYYCARGNYDHLDYWGQGTLVTVSS
VL: B4 VL with N28G, N30S, Y31N, F52S, S53T, S91D, S93H, V94T, P95L, F97V
B7: MOR09124 Fab (Fab, V domains shown)
VH: B1 VH with E1Q
VL: B1 VL
B8: MOR9556 Fab format (Fab, V domains shown)
VH: B1 VH
VL: DIQMTQSPSSLSASVGDRVTITCRASQDISNYLNWYQQKPGKAPKLLIYAASNLQSGVPSRFSGSGSGTDFTLTISSLQPEDFATYYCQQYDSYSPTFGQGTKVEIK
B9: MOR9610 Fab format (Fab, V domains shown)
VH: B4 VH
VL: DIQMTQSPSSLSASVGDRVTITCRASQNINYYLNWYQQKPGKAPKLLIYDAFSLQSGVPSRFSGSGSGTDFTLTISSLQPEDFATYYCQQSIAVPPFTFGQGTKVEIK
B10: MOR9675 Fab format (Fab, V domains shown)
VH: B6 VH
VL: DIQMTQSPSSLSASVGDRVTITCRASQGISNYLNWYQQKPGKAPKLLIYDASTLQSGVPSRFSGSGSGTDFTLTISSLQPEDFATYYCQQDWHTLPVTFGQGTKVEIK
B11: MOR09397 Fab (Fab, V domains shown)
VH: B1 VH with E1Q
VL: B1 VL with Y91H, S93T, Y94F, S95R
B12: MOR09398 Fab (Fab, V domains shown)
VH: B1 VH with E1Q
VL: B1 VL with Y91W, Y94F
B13: MOR09136 Fab (Fab, V domains shown)
VH: B4 VH with E1Q
VL: B4 VL
B14: MOR09141 Fab (Fab, V domains shown)
VH: B4 VH with E1Q
VL: B4 VL with W92I, S93A
B15: MOR09423 Fab (Fab, V domains shown)
VH: B6 VH with E1Q
VL: B4 VL with N28G, N30S, Y31N, F52S, S53T, S91D, S93H, V94T, P95L, F97V

Biological target: iC3b
Experiment: iC3b binding ELISA, iC3b coated directly, IgG titrated [iC3b binding ELISA]

binding, binds:
B1
B2
B3
B4
B5
B6

Biological target: cynomolgus complement C3b protein (cynomolgus monkey (Macaca fascicularis))
Experiment: capture ELISA, Fab lysate, secondary screening

binding, binds:
B7

Biological target: iC3b
Experiment: cross reactivity, ELISA on directly coated iC3b, anti-His detection

binding, binds:
B8
B9
B10
B7
B11
B12
B13
B14
B15
